{"source": "patent US20170081419A1", "about": "(AbbVie / Abbott, published 2017)", "binders": {"B1": {"name": "N50.3 (antibody, IgG2b, V domains shown)", "VH": "EVLLHQSGPELVKPGASVKIPCKASGYTFTDYNMDWVKQSHGKSLEWIGDINPNNGGTFYNQKFKGKATLTVHKSSSTAFMELRSLTSEDTAVYYCTRSKYDNYPWFAYWGQGTLVTVSA", "VL": "DIQMTQITSSLSASLGDRVTISCSASQGISNYLNWYQQKPDGTVKLLIYYTSSLHSGVPSRFRGSGSGTNYSLTISNLEPEDIATYYCQQYIKLPWTFGGGTKLEIKR", "notes": ".3 is the subclone suffix; also called SC1.N50"}, "B2": {"name": "N95.1 (antibody, IgG2a, V domains shown)", "VH": "QVQLQQSGAELARPGASVKLSCKASDYTFTSYGISWVKQRTGQGLEWIGEIFPRSGNTYYNEKFKGKATLTADKSSSTAYMELRSLTSEDSAVYFCARGLGGAMDYWGQGTSVIVSS", "VL": "DIVMTQAAPSVPVTPGESVSISCRSSKSLLHSNGNTYLYWFLQRPGQSPQLLIYRMSNLASGVPDRFSGSGSGTTFTLRISGVEAEDVGVYYCMQHLEYPCTFGGGTKLEIKR", "notes": ".1 is the subclone suffix; also called SC1.N95"}, "B3": {"name": "N135.1 (antibody, IgG2b, V domains shown)", "VH": "DVQLVESGGGLVQPGGSRKLSCAASGFTFSSFGMHWVRQAPEKGLEWVAYISSATSAIYYADTVKGRFTISRDNPTNTLFLQMTSLRSEDTAMYYCARKGNNYFDYWGQGTTLTVSS", "VL": "QIVLTQSPAIMSASPGEKVTLSCSATSSVTYMHWLQQKPGSSPKPWIYRTSNLASGVPARFRGSGSGTSYSLTISSMEAEDAATYYCQQYHSYPPTFGGGTKLEIKR", "notes": ".1 is the subclone suffix; also called SC1.N135"}, "B4": {"name": "N53.5 (antibody, IgG1, V domains shown)", "VH": "QVQLQQSGPELVKPGASVKLSCKASGYTFTNYDINWVKQRPGQGLEWIGWIYPRDGSFKYNEKFKGKATLTVDTSSSTAYMDLHSLTSEDSAVFFCAVSEDGYPWFPYWGQGTLVTVSA", "VL": "B1 VL with D1G, I7T, R63S, N70D, W96F, G100S"}, "B5": {"name": "N54.4 (antibody, IgG2a, V domains shown)", "VH": "QVQLQQPGAELVKPGASVKLSCQTSGYTFTSYWMHWVKQRPGQGLEWIGEINPSNGRTNYNEKFKTKATLTVDKSSTTAYIQLNSLTSEDSAVYYCARLRDYGGWGQGTLVTVSA", "VL": "NIVMTQSPKSVSMSVGERVTLSCKASENVNTFVSWFQQKPDQSPKLLIYGASNRYPGVPDRFTGSGSATEFTLTISSVQAEDLADYHCGQSYSYPYTFGGGTKLEIKR"}, "B6": {"name": "N35.6 (antibody, IgG2a, V domains shown)", "VH": "EVQLVESGGGLVKPGGSLKLSCAASGFTFSDYYMYWVRQTPEKRLEWVATISDGGTYIYYPDSVKGRFTISRDNAKNNLYLQMSSLKSEDTAMYYCVRDIDYDTSYPWFAYWGQGTLVTVSA", "VL": "RCDIQMTQTTSSLSASLGDRVTISCSASQGISNYLNWYQQKPDGTVKLLIYYTSSLHSGVPSRFSGSGSGTDYSLTINNLEPEDIATYYCQQYSKLPWTFGGGTKLEIKR"}, "B7": {"name": "N146.2 (antibody, IgG1, V domains shown)", "VH": "EVQLVESGGGLVKPGGSLKLSCAASGFTFSSFGMSWVRQTPEKRLEWVAAINSNGGNTYYSDTVKGRFTISRDNAKNTLYLQMSSLRSADTALYYCARVVHFDVWGAGTTVTVSS", "VL": "AIQMTQTTSSLSASLGDRVTISCSASQDISNYLNWYQQKPDGTVKLLIYYTSSLHSGVPSRFSGSGSGTDYSLTISNVEPEDVATYYCQQYSELPYTFGGGTKLEINR", "notes": "Kept apart from m10, which is the mouse/human chimeric form of the same clone; also called SC1.N146 (murine hybridoma clone)"}}, "note": "Substitutions are numbered along the chain they refer to. No constants are given. Whether binding was seen depends on the method and setting. Binding can be weak; no strength is given."}
{"target": "cynomolgus (macaque) CD46 homolog (macaque (cynomolgus))", "assay": "ForteBIO, concentration series of recombinant monomeric CD46 homolog"}
{"binder": "B1", "binding": "binds"}
{"binder": "B2", "binding": "binds"}
{"binder": "B3", "binding": "binds"}
{"target": "squirrel monkey CD46 homolog (squirrel monkey (Saimiri sciureus))", "assay": "ForteBIO, concentration series of recombinant monomeric CD46 homolog"}
{"binder": "B1", "binding": "no binding"}
{"binder": "B2", "binding": "no binding"}
{"binder": "B4", "binding": "binds"}
{"binder": "B5", "binding": "binds"}
{"binder": "B6", "binding": "no binding"}
{"binder": "B7", "binding": "no binding"}
